Values of other authors, collected in article PMC10586506 (Drug Metabolism and Disposition, 2023).

System: mouse Oct3
Details: read-out: IC50 mouse Oct3; ref Minematsu and Giacomini, 2011; cited from earlier work

In the case of Cc1ccc(NC(=O)c2ccc(CN3CCN(C)CC3)cc2)cc1Nc1nccc(-c2cccnc2)n1 [Imatinib, imatinib], the IC50 is given as 10 µM.
